Assay [1] concerns the target E3 ubiquitin ligase c-Cbl (endogenous in Raw264.7 macrophages) (mouse (endogenous in Raw264.7)) (UniProt P22682). In words: co-IP; Raw264.7 cells, endogenous proteins, with or without FFA (1 mM, 24 h), MG132 (10 μM) added 16 h before collecting; RIPA lysate, IP (c-Cbl or integrin α4) at 4 °C overnight, protein A/G-Sepharose, washed with NETN buffer (20 mM Tris pH 8.0, 100 mM NaCl, 1 mM EDTA, 0.5% NP-40); immunoblot for integrin β1. For orientation: A western blot detects proteins with antibodies after separation by electrophoresis.

By UniProt entry, the sequences of proteins in these tests, tags left out. Residues count along the entry.
UniProt P09055, residues 21-798: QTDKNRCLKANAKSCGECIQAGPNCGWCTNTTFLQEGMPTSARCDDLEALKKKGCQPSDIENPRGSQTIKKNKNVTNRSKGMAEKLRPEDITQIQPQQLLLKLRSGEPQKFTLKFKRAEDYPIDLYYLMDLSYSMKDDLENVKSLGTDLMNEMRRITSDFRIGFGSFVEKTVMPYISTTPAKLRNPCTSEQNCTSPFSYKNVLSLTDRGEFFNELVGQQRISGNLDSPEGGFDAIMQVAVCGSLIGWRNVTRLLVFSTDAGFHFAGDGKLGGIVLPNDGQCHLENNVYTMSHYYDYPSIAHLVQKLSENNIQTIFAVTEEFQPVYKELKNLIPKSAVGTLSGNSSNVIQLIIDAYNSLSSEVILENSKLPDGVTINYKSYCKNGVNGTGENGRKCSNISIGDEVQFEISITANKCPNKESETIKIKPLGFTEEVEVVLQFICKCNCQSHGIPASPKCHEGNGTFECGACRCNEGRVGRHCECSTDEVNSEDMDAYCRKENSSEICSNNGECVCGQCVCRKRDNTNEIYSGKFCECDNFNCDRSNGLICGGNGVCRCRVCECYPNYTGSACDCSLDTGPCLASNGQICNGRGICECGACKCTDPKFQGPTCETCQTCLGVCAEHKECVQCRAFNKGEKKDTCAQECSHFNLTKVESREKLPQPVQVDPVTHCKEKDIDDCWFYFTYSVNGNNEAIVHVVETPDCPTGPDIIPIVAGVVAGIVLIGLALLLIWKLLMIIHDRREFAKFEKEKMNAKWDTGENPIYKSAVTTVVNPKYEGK

The target of assay [2] is T1, integrin α4 (endogenous in Raw264.7 macrophages) (mouse (endogenous in Raw264.7)) (UniProt Q00651).
T1 sequence: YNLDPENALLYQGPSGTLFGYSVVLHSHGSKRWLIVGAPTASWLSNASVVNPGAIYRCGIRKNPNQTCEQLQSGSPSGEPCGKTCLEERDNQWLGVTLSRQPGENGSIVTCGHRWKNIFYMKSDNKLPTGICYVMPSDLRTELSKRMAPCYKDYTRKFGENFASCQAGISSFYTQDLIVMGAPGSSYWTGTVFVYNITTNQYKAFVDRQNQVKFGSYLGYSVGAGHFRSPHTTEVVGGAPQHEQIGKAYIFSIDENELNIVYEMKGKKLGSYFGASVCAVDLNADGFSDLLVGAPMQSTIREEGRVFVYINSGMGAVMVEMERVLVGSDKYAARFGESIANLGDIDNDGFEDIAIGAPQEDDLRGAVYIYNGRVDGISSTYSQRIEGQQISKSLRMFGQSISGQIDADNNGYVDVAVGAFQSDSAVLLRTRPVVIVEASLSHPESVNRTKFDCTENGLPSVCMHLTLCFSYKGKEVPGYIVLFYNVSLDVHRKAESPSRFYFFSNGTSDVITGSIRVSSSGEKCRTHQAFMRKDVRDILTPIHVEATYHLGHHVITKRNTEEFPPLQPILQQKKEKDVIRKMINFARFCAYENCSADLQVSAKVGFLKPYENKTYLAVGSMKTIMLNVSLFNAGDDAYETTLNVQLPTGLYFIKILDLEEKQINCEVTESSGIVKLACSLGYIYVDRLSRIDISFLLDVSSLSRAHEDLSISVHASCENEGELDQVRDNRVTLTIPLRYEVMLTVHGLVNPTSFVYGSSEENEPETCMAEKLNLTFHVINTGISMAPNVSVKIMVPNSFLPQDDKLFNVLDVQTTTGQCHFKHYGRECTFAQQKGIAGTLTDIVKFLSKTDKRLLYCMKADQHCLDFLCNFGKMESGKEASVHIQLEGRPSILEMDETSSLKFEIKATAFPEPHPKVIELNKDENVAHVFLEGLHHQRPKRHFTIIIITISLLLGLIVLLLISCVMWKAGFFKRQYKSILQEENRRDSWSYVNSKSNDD
The assay is described as above.

These are yes or no findings as the source states them, for the method shown. Binding seen in cells or lysates may run through a third protein. Some binding calls cover weakened binding; strength is not graded here.

On to “integrin β1 (endogenous in Raw264.7 macrophages) (from UniProt P09055 21-798) (receptor)”, for which the binding result in assay [1] and in assay [2] was “binds” throughout.

The values are drawn from article PMC9808002.
